Part of at least one peptide drawing is inferred or uncertain, most often the ends. No end group written: not given here.
What was measured:
[1] = system: PKC binding to RACK1; experiment: Overlay / overlay-extraction assay: inhibition of PKC binding to recombinant RACK1 by peptides; parameters: species or system rat
Description: Purified recombinant RACK1 protein (100-250 μg per lane, produced as detailed in Example 2) was subjected to SDS/PAGE and blotted onto nitrocellulose membranes (Ausubel). The nitrocellulose membranes were cut into strips, which were incubated for 0.5 hr in overlay buffer (Example 1) in the presence or absence of a mixture of PKC isozymes (α, β, γ, ε and .zeta., ~10 nM each final concentration) and PKC activators (60 μg/ml phosphatidylserine (PS), 2 μg/ml diacylglycerol (DG), and 1 mM CaCl2). Unbound material was removed by five washes, 5-min each, in overlay wash buffer. Where indicated, PKC activators were present during the incubation of PKC with the nitrocellulose strips. The conditions for each sample and corresponding results are presented in part D below. […]
Nitrocellulose strips containing immobilized RACK1, that had been contacted with a solution containing a mixture of PKC isozymes, were washed and the area corresponding to the 36 kDa (RACK1-containing) band was cut out. […] The gel was blotted onto nitrocellulose and a Western blot analysis was carried out using the mixture of antibodies (specific for PKC α, β, γ, δ, ε and .zeta. isozymes) described in Example 1 part B. Bound antibodies were detected by ^125 I-protein A. […]

By UniProt entry, the sequences of proteins in these tests, tags left out.
UniProt P68403, whole entry: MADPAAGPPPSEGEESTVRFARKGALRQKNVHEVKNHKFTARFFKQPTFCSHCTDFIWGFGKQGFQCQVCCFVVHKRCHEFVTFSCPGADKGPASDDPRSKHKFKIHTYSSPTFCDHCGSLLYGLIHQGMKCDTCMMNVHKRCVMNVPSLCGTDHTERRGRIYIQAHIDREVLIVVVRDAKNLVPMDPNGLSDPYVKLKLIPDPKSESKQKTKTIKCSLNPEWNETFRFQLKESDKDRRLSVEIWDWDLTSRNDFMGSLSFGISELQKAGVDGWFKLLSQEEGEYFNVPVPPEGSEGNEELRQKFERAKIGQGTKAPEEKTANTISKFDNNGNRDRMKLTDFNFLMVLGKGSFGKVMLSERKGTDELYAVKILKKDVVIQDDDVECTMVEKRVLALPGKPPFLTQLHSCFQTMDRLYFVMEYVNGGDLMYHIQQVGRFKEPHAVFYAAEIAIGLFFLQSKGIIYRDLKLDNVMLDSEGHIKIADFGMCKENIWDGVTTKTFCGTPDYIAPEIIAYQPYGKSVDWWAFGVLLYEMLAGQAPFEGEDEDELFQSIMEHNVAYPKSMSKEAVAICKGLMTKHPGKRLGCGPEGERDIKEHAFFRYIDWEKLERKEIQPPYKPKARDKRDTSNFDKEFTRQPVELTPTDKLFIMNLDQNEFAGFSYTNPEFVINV

[2] = system: PKC-mediated germinal vesicle breakdown (GVBD) in Xenopus oocytes; experiment: PKC-mediated Xenopus oocyte maturation (germinal vesicle breakdown, GVBD) after peptide microinjection; type: cell-based
Description: Exposure to insulin induces maturation in Xenopus oocytes via a PKC-dependent pathway (Smith, et al., 1992). The maturation response may be quantified by monitoring the appearance of a white spot in the animal hemisphere of the oocyte, indicating germinal vesicle breakdown (GVBD) and maturation. To assess the effects of RACK1 WD-40-derived peptides on insulin-induced PKC-mediated maturation, 50 nl of a 20 mM NaCl solution containing the indicated peptides [peptide I (SEQ ID NO:1; .circle-solid.), peptide rVI (SEQ ID NO:7; .box-solid.), or injection solution (.quadrature.)] […] One hour following the peptide injections, the oocytes were exposed to a solution containing insulin (8.25 μg/ml) for 2 minutes (t=0). 10-15 oocytes were used for each sample.
The data, representative of three independent experiments, are expressed as the percent of oocytes with GVBD following insulin exposure and are plotted as a function of time in FIG. 5.

[3] = system: βPKC; experiment: βPKC translocation (soluble vs particulate fraction) in Xenopus oocytes; type: cell-based; details: 50 μM peptide microinjected
Description: Insulin causes the translocation of βPKC, but not other PKC isozymes, from a cytosolic form to a membrane-associated form, as evidenced by the relative levels of PKC in the soluble vs. the particulate fraction of oocyte homogenate. To assess the effects of RACK1 WD-40-derived peptides on insulin-induced PKC translocation, 50 nl of a 20 mM NaCl solution containing the indicated peptides were microinjected into Xenopus oocytes. The oocytes were then homogenized, and the relative amount of PKC in the soluble and particulate fractions was assayed. The protocol followed was a modification of a method described by Smith, et al. (1992).
Batches of 50 oocytes were microinjected with either peptide rVI (SEQ ID NO:7; 50 μM; lanes 3, 4), peptide I (SEQ ID NO:1; 50 μM, lanes 7, 8) or injection solution (NaCl 20 mM, lanes 1,2 and 5,6). Homogenates from each batch were prepared 60 minutes after microinjection (lanes 1-4) or 60 minutes after addition of insulin (lanes 5-8). The homogenates were centrifuged at 10,000 g for 3 minutes, the upper layer (containing fat and yolk) was removed, and the remainder was frozen at -70° C. […] The amount of PKC in each fraction was determined by Western blot using anti-βPKC antibodies (1:1000 dilution; Seikagaku Kogyo, Tokyo, Japan). Bound primary antibodies were detected by chemiluminescence as described in Example 3, part C.

[4] = system: PKC; experiment: PKC autophosphorylation; type: biochemical, rat; details: 10 μM peptide, no PS
Description: Rat brain PKC (~10 nM) was incubated with mild agitation in a final volume of 250 μl of overlay buffer, as in Example 1 either with anti-βPKC pseudosubstrate antibodies (1:10 dilution, Life Technologies, Gaithersburg, Md.) or with the indicated peptide (10 μM). Where indicated, PS (50 μg/ml), DG (0.8 μg/ml) and CaCl2 (1 mM) were also added. The amount of autophosphorylation was determined after 2 hours for the reaction with the anti-pseudosubstrate antibodies, or after 15 minutes for the other samples. 50 μl of a buffer comprised of 20 mM Tris-HCl (pH 7.5), 20 mM MgCl2, 20 μM ATP and 5 μci/ml [γ-^32 P]ATP. The mixture was incubated for 15 minutes at room temperature and the reaction was stopped by adding 60 μl sample buffer (see Example 9). The samples were then boiled for 10 minutes, loaded onto a 10% SDS-PAGE mini gel and electrophoresed. The gel was fixed with 50% methanol and 10% acetic acid for 1 hour, and the autophosphorylation of PKC was determined by autoradiography.

[5] = system: PKC; experiment: Histone type IIIs phosphorylation by PKC; type: biochemical; details: peptide rVI 10 μM; PKC ~10 nM
Description: Histone type IIIs (Sigma Chemical Company, St. Louis, Mo.) was phosphorylated by PKC (~10 nM) in the absence (lane 1) and presence of peptide rVI (10 μM) (lanes 2 and 3) and in the presence and absence of DG (0.8 μg/ml), PS (50 μg/ml) and CaCl2 (1 mM) (lane 3). The results are expressed as percentage of control that is the amount of Histone phosphorylation by PKC in the presence of DG (0.8 μg/ml), PS (50 μg/ml) and CaCl2 (1 mM). The results are the average±SEM of two independent experiments. PKC was first incubated with the peptide rVI (10 μM) for 15 minutes in overlay buffer as described above. Histone type IIIs (40 μg/ml) was added in Tris-HCl (20 mM), MgCl2 (20 mM), ATP (20 μM) and [γ-^32 P]ATP (5 μci/ml) with or without PS (50 μg/ml), DG (0.8 μg/ml) and CaCl2 (1 mM). Histone phosphorylation was determined by autoradiography as above.

[6] = system: δ and εPKC isozymes; experiment: PKC isozyme translocation and degradation in cardiac myocytes; type: cell-based, rat; details: peptide introduced into cardiac myocytes
Source text: This peptide-induced translocation was followed by degradation of δ and εPKC isozymes.

[7] = target: T1, βPKC (Rattus norvegicus, UniProt P68403); experiment: PKC overlay of immobilized peptides (slot-blot); type: binding; parameters: All the solutions contained 5 nM rat brain PKC in peptide overlay buffer; from tissue; host or cells: rat brain; details: DG and calcium
Description: The binding of βPKC to peptide I (SEQ ID NO:1), peptide rVI (SEQ ID NO:7) and control peptide (SEQ ID NO:9) was assessed using a PKC overlay assay similar to that described in Example 3. Increasing amounts of peptides (0.5 μmole, 1.0 μmole, 5.0 μmole and 10.0 μmole) suspended in 20 mM NaCl were applied individually onto nitrocellulose using a slot-blot apparatus (Schleicher and Schuell, Keene, N.H.). The nitrocellulose membrane was washed three times, minutes per wash, in peptide overlay buffer and incubated for two hours in peptide overlay block buffer. The membrane was cut into sections and the sections were transferred to different PKC-containing solutions and incubated for 30 minutes at room temperature. All the solutions contained 5 nM rat brain PKC in peptide overlay buffer. Some solutions additionally contained PS, DG, and calcium. The membranes were then washed three times, 15 minutes per wash, in peptide overlay buffer and incubated in peptide overlay block buffer containing anti-βPKC monoclonal antibodies (1:1000 dilution; Seikagaku Kogyo, Tokyo, Japan). […]
Binding of PKC was determined using chemiluminescence as described in Example 3, part C. Quantitation of PKC binding was carried out using a "MICRO SCAN" 1000 gel analyzer (Galai Inc., Yokneam, Israel).

[8] = target: T1, βPKC; experiment: Sensitivity of βPKC to Arg-C endopeptidase (nicking); type: biochemical; parameters: All the solutions contained 5 nM rat brain PKC in peptide overlay buffer; from tissue; host or cells: rat brain; details: 2.5 μg/ml PS and 50 μM CaCl2
Source text: Upon activation of PKC, a pseudosubstrate autoinhibitory sequence at the N-terminus of the molecule dissociates from the catalytic site and becomes sensitive to endopeptidase Arg-C (Orr, et al.). In the absence of PKC activators, exposure of the 80 kDa βPKC to endopeptidase Arg-C has no effect on the enzyme (see FIG. 7, lane 1). In the presence of the PKC activators PS, DG and calcium, however, exposure of βPKC to Arg-C results in a "nicking" of the PKC (i.e. limited proteolysis generating a 78 kDa fragment and several small fragments (see FIG. 7, lane 2)). Continued exposure to Arg-C results in the disappearance of βPKC (Orr, et al.). The present experiment tests whether peptides derived from the WD-40 region of RACK1 alter the sensitivity of βPKC to endopeptidase Arg-C.
The methods used to assay Arg-C sensitivity are a modification of methods described by Orr, et al. Rat brain PKC (~5 nM) was incubated at room temperature in 500 μl of 20 mM Tris-HCl buffer (pH 7.5) alone or with Arg-C (5 units/ml) in the presence or absence of the indicated peptides (final concentration 10 μM or as indicated), PS, DG, and calcium (as indicated). […] The samples were boiled for 10 minutes at 80° C. and loaded onto 8% SDS-PAGE. βPKC was detected by Western blot analysis using anti-βPKC antibodies as described in Examples 6 and 8. […]

[9] = 50 μM peptide alone, no insulin
[10] = 50 μM peptide microinjected, insulin 8.25 μg/ml

DIINALCF [peptide rVI]
inhibition of PKC binding to RACK1 (FIG. 3) ([1]; 10 μM peptide preincubated with PKC): inhibit the binding of PKC to RACK1 | inhibition of the binding of PKC to RACK1, peptides rI-rVII ([1]; overlay assay, concentration not given): inhibited the binding of PKC to RACK1 | delay to initiation of maturation in the absence of insulin [2, 9]: 6 to 7 h | induction of GVBD in the absence of insulin [2, 9]: induced GVBD | plateau of % GVBD in the absence of insulin [2, 9]: about 50 % GVBD | delay to onset of maturation after exposure to insulin [2, 10]: 3 to 4 h | time at which plateau of GVBD is reached [2, 10]: ≤ 5 h | plateau of % GVBD following insulin exposure ([2]; 50 nl of 50 μM peptide microinjected, insulin 8.25 μg/ml): 95-100 % GVBD | dose dependence of effect on GVBD ([2]; between 5 μm-500 μM): dose-dependent | effect on insulin-induced oocyte maturation ([2]; peptide microinjected (rVI 50 μM; rIII 50 and 500 μM)): potentiates the effects of insulin on oocyte maturation | fraction of oocytes exposed to insulin that reach maturation ([2]; peptide microinjected, insulin): ~100% | effect on insulin (hormone)-induced βPKC translocation ([3]; 60 minutes after addition of insulin): augments hormone-induced translocation of PKC isozymes | βPKC distribution / translocation in the absence of insulin treatment ([3]; homogenate 60 minutes after microinjection): induced βPKC translocation | PKC autophosphorylation in the absence of PKC activators, relative to that with optimal PS, DG and calcium [4]: over 80% | induction of PKC-mediated histone phosphorylation in the absence of PS, DG and calcium [5]: induced histone phosphorylation by PKC | translocation / distribution of δ and εPKC isozymes in the absence of hormone stimulation [6]: to a lesser extent | peptide amount at which activated PKC bound to immobilized peptide (as low as) ([7]; PKC with PS, 5 nM rat brain PKC, 0.5-10.0 μmole peptide on nitrocellulose): ≤ 5 µmol | binding of unactivated PKC to immobilized peptide ([7]; PKC without PS): did bind | peptide concentration sufficient to result in nicking activity (as low as) ([8]; Arg-C): ≤ 10 nM | nicking of βPKC by Arg-C (78 kDa fragment) at low concentrations of activators ([8]; peptide 10 μM, Arg-C 5 units/ml): time-dependent appearance of the 78 kDa nicked PKC fragment

Reference: patent publication US6262023A, “WD-40 derived peptides and uses thereof” (The Board of Trustees of the Leland Stanford Junior …, priority 1995, dated 2001)
